Measurements from patent US6869939B2, “Formulations containing amiodarone and sulfoalkyl ether cyclodextrin” (CyDex, Inc., priority 2002, dated 2005).
Read-outs that look alike come from different tables or passages of the source.

Legend:
[1] = without heating
[2] = cited from earlier work

SMILES: CCCCc1oc2ccccc2c1C(=O)c1cc(I)c(OCCN(CC)CC)c(I)c1.Cl [Amiodarone HCl, (2-butyl-3-benzofuranyl)[4-[2-(diethylamino)ethoxy]-3,5-diiodophenyl]methanone hydrochloride]
- amiodarone concentration that can be achieved ([1]; SAE-CD 0.37 M, 80% wt.): at least 100 mg/mL
- amiodarone concentration that can easily be achieved ([1]; […]): about 35 mg/ml
- amiodarone concentration that could be achieved ([2]; 25° C. (Ravin et al. 1975)): 0.35 mg/mL
- amiodarone concentration that could be achieved ([2]; 40° C. (Ravin et al. 1975)): 0.95 mg/mL
- amiodarone concentration that could be achieved ([2]; about 60° C. (Ravin et al. 1975)): > 13 mg/mL
